Measured values from patent publication US9476892B2, “Composition and method for measuring thallium influx and efflux” (priority 2007, dated 2016).
Some compounds share one wording; it may come from a single statement.

Experiment: Thallium sensitivity of fluorescent agents (fluorescence intensity change in the presence of thallium ions)
Assay type: physicochemical
Conditions: thallium sensitive fluorescent agents

Row | Molecule | change in fluorescence intensity in the presence of thallium ions
1 | Nc1cc(S(=O)(=O)O)cc2cc(S(=O)(=O)O)cc(S(=O)(=O)O)c12 [ANTS] | decrease in fluorescence intensity
2 | Cc1ccc(N(CC(=O)O)CC(=O)O)c(OCCOc2cc(-c3c4cc(Cl)c(=O)cc-4oc4cc(O)c(Cl)cc34)ccc2N(CC(=O)O)CC(=O)O)c1 [Fluo-3] | decrease in fluorescence intensity
3 | O=C(O)CN(CC(=O)O)c1ccc(-c2c3cc(F)c(=O)cc-3oc3cc(O)c(F)cc23)cc1OCCOc1c(N(CC(=O)O)CC(=O)O)ccc(F)c1F [Fluo-4FF] | increase in fluorescence
4 | O=C([O-])COc1cc(NC(=O)c2ccc3c(c2)C(=O)OC32c3cc(Cl)c([O-])cc3Oc3cc([O-])c(Cl)cc32)ccc1N(CC(=O)[O-])CC(=O)[O-].[K+].[K+].[K+].[K+].[K+] [Magnesium Green] | increase in fluorescence
5 | COc1cc2cc(-c3ccc(C(=O)O)cc3C(=O)O)oc2cc1N1CCOCCOCCN(c2cc3oc(-c4ccc(C(=O)O)cc4C(=O)O)cc3cc2OC)CCOCCOCC1 [PBFI] | decrease in fluorescence intensity
6 | Fluo-4 | decrease in fluorescence intensity
